Values of other authors in US20050255458A1, “Drug discovery assays based on the biology of chronic disease” (priority 2002, published 2005).
Some of these results come from one statement about several compounds together. At least one structure is not confirmed: it was looked up by name or label, or the drawing left a doubt.

Test system: Fas/GABP site (−863, −820)
Conditions: two or four copies of Fas/GABP site in pGL3/promoter; cited from earlier work

Structure (SMILES): CCCCCCCCCCCCCC(=O)O[C@@H]1[C@@H](C)[C@@]2(O)[C@@H](C=C(CO)C[C@]3(O)C(=O)C(C)=C[C@@H]23)[C@@H]2C(C)(C)[C@]12OC(C)=O [TPA, phorbol 12-myristate 13-acetate]
- stimulation of luciferase activity: 8-20 fold
